Test results from doi:10.1101/2023.07.28.550915.

By UniProt entry, the sequences of proteins in these tests, tags left out.
UniProt Q9BQ67: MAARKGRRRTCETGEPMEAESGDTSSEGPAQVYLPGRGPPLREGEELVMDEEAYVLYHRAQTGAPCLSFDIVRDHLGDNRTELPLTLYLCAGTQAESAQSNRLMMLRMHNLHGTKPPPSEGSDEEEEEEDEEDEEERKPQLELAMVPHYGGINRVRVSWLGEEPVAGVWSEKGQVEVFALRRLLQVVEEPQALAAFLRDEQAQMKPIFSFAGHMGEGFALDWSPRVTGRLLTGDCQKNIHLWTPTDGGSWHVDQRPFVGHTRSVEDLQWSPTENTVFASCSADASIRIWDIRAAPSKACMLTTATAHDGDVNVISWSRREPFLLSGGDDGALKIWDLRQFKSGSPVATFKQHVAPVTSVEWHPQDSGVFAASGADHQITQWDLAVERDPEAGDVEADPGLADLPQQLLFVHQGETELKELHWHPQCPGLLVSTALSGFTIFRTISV
UniProt Q13242: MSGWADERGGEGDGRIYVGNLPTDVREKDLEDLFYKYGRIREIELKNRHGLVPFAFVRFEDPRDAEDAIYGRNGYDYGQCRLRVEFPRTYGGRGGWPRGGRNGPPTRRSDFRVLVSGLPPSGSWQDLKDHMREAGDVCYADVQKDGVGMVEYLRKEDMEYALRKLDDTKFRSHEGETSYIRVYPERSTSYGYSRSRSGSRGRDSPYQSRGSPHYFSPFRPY

Biological target: T1, Flag-tagged human DVL3 (Dishevelled 3), wild type (human) (UniProt Q92997)
T1 sequence: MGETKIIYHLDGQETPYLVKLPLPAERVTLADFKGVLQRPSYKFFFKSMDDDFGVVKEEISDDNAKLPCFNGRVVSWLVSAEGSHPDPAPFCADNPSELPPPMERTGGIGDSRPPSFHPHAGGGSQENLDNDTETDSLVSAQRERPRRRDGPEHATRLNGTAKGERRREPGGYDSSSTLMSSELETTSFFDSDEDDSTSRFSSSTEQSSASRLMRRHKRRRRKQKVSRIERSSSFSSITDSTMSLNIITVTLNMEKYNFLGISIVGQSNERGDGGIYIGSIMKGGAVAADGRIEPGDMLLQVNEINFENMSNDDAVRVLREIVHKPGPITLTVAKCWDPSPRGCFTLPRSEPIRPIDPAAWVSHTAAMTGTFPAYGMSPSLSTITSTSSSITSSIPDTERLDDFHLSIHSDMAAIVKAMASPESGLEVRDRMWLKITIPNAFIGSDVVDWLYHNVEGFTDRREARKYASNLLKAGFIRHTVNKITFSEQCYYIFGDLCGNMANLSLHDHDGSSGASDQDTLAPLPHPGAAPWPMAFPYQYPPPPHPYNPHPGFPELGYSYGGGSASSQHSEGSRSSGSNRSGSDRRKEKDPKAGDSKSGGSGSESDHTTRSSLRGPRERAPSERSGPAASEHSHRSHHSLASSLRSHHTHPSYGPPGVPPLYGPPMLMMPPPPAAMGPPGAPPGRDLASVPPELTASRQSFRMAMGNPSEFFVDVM
Experiment: affinity purification with mass spectrometry

binding	Substance
binds	GRWD1 (from UniProt Q9BQ67 1-446)
binds	SRSF9 (from UniProt Q13242 1-221)

These are yes or no findings as the source states them, for the method shown. In cells and extracts the contact can be indirect. Here binding means that the protein was enriched with, or labelled near, the bait; the list need not be complete. Sequences can lack the tags named with a protein.
